Measurements: the supplement of paper PMC10849652
This is one part of the list.

Protein sequences, listed by entry. Tags and fused reporters are not part of them. Lines headed by an entry give the natural chain unless they say otherwise; changes in a name come on top.
UniProt Q9UQN3, whole entry, looked up: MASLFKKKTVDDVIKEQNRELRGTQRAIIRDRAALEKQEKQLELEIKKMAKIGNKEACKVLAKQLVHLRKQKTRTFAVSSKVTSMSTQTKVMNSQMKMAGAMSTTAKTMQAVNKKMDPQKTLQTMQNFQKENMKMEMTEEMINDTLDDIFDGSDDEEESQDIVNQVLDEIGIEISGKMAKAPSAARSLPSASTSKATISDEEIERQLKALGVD
UniProt Q14008: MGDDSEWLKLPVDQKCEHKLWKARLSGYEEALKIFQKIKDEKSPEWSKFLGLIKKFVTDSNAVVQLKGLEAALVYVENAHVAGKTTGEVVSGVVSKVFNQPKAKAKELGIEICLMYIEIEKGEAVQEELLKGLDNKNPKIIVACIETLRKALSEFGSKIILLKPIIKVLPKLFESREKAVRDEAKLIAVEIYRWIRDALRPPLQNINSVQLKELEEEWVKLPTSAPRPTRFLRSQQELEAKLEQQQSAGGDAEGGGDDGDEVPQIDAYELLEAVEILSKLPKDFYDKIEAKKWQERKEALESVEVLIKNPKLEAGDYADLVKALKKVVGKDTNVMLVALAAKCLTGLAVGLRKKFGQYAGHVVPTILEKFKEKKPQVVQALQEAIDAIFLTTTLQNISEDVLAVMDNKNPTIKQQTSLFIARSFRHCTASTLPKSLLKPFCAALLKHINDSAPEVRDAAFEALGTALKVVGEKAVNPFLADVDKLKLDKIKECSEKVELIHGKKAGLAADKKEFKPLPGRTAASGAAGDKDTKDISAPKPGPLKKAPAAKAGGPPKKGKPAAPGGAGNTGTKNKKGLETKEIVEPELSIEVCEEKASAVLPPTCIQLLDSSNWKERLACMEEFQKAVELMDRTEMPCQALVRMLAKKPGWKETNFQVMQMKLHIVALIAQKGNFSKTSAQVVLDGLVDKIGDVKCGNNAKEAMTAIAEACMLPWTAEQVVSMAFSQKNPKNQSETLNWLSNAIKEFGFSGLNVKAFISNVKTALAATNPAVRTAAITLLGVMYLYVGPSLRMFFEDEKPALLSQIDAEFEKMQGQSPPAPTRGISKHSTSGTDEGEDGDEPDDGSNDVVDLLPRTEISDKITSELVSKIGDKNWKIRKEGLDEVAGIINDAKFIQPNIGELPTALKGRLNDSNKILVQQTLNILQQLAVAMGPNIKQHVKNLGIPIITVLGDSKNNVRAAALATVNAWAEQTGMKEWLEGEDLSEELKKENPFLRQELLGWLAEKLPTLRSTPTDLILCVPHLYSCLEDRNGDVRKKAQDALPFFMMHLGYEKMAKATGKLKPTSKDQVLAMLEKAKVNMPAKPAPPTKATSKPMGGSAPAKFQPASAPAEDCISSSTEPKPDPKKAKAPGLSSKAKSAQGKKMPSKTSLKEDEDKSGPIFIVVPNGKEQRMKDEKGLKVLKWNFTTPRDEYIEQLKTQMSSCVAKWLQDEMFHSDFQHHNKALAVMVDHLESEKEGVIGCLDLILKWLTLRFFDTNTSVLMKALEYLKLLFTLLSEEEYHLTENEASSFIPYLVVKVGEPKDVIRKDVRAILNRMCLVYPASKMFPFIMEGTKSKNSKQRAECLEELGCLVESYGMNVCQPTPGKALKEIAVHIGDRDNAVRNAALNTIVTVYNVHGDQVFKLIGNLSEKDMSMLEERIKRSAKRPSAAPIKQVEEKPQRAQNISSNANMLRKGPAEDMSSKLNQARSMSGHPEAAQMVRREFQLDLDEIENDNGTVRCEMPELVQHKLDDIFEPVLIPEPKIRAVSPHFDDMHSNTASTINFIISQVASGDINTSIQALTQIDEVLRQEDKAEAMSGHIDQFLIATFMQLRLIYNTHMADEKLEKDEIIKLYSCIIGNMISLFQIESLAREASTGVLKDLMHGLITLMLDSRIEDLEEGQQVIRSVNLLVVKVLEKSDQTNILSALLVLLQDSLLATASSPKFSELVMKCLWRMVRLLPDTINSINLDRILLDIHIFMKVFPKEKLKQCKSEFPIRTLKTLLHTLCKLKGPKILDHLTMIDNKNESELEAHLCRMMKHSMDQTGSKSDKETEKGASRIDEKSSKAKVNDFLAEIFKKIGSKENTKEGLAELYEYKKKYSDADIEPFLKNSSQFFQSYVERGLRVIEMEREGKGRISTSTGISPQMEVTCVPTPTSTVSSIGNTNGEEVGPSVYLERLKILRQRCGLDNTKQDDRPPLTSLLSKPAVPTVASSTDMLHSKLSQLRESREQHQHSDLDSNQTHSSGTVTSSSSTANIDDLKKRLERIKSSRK
UniProt Q9H5X1: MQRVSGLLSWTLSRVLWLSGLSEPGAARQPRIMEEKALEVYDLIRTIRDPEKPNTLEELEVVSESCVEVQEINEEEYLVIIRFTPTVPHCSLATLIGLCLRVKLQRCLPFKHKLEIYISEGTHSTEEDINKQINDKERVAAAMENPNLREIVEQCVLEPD
UniProt P06732: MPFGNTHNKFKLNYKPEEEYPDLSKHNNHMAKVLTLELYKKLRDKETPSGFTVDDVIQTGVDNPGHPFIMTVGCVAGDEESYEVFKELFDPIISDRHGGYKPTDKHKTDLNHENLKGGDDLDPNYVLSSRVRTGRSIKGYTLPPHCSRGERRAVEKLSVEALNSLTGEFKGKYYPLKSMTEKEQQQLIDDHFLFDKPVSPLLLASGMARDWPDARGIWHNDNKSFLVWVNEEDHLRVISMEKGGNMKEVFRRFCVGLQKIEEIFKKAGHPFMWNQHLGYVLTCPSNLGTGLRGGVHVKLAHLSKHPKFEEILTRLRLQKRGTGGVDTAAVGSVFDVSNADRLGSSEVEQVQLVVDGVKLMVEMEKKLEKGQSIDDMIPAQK
UniProt Q96DG6: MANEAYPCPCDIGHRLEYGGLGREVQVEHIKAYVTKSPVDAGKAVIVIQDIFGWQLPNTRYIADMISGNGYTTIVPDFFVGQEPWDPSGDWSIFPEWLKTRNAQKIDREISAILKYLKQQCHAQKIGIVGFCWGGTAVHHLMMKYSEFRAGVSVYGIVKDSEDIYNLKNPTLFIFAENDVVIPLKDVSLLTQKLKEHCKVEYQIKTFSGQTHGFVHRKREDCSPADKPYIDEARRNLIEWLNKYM
UniProt Q7Z7K0: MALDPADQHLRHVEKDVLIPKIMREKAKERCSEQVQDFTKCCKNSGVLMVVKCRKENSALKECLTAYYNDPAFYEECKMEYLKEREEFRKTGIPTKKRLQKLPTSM
UniProt Q8WUH1: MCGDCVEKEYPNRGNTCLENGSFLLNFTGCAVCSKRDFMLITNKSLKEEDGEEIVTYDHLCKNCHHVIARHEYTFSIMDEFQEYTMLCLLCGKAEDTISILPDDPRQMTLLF
UniProt Q9H6Q4: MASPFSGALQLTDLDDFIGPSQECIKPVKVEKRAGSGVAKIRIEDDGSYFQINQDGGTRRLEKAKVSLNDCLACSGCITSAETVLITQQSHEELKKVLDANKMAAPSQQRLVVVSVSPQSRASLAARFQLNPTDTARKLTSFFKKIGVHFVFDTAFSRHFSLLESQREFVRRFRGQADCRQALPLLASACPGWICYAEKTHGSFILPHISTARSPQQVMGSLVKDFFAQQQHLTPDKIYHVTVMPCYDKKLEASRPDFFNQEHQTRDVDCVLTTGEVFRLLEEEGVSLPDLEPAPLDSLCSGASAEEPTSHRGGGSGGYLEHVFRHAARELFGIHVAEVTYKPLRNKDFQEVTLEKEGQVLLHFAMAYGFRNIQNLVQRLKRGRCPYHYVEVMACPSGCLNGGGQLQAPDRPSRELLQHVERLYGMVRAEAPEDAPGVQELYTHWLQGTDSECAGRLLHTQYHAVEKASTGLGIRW
UniProt Q99653: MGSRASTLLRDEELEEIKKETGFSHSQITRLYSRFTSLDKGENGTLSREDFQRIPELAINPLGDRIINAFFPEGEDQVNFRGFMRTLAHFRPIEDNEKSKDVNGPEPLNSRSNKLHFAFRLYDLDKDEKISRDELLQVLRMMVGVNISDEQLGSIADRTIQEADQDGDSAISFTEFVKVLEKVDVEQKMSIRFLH
UniProt Q14839: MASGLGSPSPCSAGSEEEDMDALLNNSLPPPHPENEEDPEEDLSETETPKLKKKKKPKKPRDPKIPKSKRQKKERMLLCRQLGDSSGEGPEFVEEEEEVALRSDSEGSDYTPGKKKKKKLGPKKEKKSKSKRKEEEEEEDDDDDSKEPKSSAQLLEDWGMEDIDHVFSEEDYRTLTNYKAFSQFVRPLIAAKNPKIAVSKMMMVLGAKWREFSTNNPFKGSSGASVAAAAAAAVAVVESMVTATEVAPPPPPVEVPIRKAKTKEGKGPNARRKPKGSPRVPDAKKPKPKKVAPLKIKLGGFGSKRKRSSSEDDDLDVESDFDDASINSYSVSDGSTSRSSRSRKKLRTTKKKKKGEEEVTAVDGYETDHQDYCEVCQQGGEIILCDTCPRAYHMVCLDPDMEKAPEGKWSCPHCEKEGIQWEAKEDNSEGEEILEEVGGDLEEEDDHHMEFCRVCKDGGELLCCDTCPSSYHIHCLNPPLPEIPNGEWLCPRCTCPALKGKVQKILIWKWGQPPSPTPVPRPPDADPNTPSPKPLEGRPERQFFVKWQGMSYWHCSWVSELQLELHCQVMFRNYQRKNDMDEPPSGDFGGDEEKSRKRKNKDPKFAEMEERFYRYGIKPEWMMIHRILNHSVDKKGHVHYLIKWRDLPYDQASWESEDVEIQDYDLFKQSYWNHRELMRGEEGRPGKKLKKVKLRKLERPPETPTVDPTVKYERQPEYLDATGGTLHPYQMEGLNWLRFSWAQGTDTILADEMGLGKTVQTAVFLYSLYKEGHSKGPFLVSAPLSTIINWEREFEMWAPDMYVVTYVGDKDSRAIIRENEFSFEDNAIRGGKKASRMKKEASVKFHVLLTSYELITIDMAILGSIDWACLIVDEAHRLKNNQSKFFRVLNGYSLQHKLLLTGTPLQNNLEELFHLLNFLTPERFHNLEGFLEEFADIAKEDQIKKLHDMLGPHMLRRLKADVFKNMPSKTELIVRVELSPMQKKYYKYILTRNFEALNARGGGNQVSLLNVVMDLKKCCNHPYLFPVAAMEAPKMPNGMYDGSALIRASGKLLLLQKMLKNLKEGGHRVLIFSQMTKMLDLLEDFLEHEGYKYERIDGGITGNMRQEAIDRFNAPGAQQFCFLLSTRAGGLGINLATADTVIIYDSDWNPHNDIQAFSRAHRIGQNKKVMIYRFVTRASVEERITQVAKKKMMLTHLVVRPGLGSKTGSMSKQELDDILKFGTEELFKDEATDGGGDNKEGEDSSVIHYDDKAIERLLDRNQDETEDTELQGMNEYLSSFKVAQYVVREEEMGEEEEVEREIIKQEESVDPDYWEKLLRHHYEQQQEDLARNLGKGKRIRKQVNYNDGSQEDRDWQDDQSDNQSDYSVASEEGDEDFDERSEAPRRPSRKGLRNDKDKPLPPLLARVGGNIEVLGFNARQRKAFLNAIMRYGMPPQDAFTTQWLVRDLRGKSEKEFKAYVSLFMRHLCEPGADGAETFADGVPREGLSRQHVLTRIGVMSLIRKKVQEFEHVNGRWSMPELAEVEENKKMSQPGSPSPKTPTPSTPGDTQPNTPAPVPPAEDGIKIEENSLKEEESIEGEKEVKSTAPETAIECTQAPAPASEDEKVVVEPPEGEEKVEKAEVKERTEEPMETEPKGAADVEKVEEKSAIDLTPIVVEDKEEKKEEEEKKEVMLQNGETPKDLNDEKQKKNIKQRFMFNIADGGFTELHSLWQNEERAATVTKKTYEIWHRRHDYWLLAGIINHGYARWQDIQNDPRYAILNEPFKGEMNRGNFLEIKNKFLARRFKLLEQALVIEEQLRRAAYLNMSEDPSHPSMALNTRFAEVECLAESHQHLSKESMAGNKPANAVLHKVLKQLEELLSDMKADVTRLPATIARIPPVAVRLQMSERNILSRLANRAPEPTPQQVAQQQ
UniProt Q14677: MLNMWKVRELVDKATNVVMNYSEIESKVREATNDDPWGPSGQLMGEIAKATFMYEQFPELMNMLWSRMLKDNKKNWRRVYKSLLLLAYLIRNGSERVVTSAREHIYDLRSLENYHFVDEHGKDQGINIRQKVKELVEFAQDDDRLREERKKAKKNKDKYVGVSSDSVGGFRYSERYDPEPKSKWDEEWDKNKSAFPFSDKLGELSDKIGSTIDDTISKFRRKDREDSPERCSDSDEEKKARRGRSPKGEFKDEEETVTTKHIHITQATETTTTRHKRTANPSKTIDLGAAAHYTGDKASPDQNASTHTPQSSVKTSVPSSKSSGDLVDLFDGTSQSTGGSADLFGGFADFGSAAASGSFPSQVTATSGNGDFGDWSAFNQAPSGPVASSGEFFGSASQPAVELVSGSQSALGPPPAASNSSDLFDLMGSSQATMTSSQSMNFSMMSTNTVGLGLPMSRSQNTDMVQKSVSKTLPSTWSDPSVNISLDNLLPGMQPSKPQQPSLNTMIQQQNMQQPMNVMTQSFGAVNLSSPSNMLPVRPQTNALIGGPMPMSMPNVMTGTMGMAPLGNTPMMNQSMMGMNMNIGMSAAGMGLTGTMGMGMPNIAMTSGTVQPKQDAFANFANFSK
UniProt P61024, whole entry, looked up: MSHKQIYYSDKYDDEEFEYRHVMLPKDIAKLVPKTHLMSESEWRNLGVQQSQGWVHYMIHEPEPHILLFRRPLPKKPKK

Key:
Assay in all cases: log2 fold change, soluble protein after heating vs DMSO (PISA); higher = thermal stabilisation; K562 lysate, 10 uM; active = over 0.2 and 3.5 SD of the protein, either way, in both replicates (recomputed)
[1] = compound: Cc1cn(-c2cc(NC(=O)c3ccc(C)c(Nc4nccc(-c5cccnc5)n4)c3)cc(C(F)(F)F)c2)cn1 [nilotinib]
Method in brief: (§1)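 Quantification was by TMTpro 16plex LC-MS/MS with equalised channel sums, applied to the supernatant after 21,000xg for 90 min. Samples were crude K562 extract at 1 mg/mL protein in PBS pH 7.4 with 1 mM MgCl2, treated with 10 μM compound for 30 min, heated for 3 min across 48°C-58°C, pooled and brought to 0.5% NP-40 at 4°C. Values are log-two fold changes in thermal stability relative to solvent controls, from duplicates.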

[2] = compound: Cc1nc(Nc2n[nH]c3c2CN(C(=O)N[C@H](CN(C)C)c2ccccc2)C3(C)C)c2sccc2n1
Method in brief: as §1

[3] = compound: Cc1nc(Nc2ncc(C(=O)Nc3c(C)cccc3Cl)s2)cc(N2CCN(CCO)CC2)n1 [dasatinib]
Method in brief: as §1

[4] = compound: Cc1ncc(-c2ccnc(Nc3ccc(S(C)(=O)=O)cc3)n2)n1C(C)C
Method in brief: as §1

[5] = compound: Cn1cc(-c2ccc3c(c2)CCN3C(=O)Cc2cccc(C(F)(F)F)c2)c2c(N)ncnc21
Method in brief: as §1

[6] = compound: Cn1cc(CNCC2CCN(c3ncc(C(=O)NO)cn3)CC2)c2ccccc21 [quisinostat]
Method in brief: as §1

[7] = compound: Cn1cncc1[C@@](N)(c1ccc(Cl)cc1)c1ccc2c(c1)c(-c1cccc(Cl)c1)cc(=O)n2C [tipifarnib]
Method in brief: as §1

[8] = compound: NC(=O)Nc1cc(-c2cccc(F)c2)sc1C(=O)N[C@H]1CCCNC1
Method in brief: as §1

[9] = compound: NC(=O)c1cnc(N[C@@H]2CCCC[C@@H]2N)nc1Nc1cccc(-n2nccn2)c1
Method in brief: as §1

[10] = compound: NC1(c2ccc(-c3nc4ccn5c(=O)[nH]nc5c4cc3-c3ccccc3)cc2)CCC1
Method in brief: as §1

Measured: log2 fold change

CHMP2B (UniProt Q9UQN3)
inactive: [1] -0.002 | [2] 0.008 | [3] 0.018 | [4] -0.021 | [5] 0.053 | [6] 0.05 | [7] -0.002 | [8] -0.035 | [9] -0.018 | [10] 0.056

CKAP5 (UniProt Q14008)
inactive: [1] 0 | [2] 0.002 | [3] -0.024 | [4] -0.005 | [5] 0.026 | [6] -0.03 | [7] -0.028 | [8] 0.021 | [9] 0.01 | [10] 0.006

CIAO2A (UniProt Q9H5X1)
inactive: [1] -0.018 | [2] 0.033 | [3] -0.037 | [4] -0.074 | [5] 0.011 | [6] 0.011 | [7] -0.067 | [8] -0.004 | [9] -0.027 | [10] -0.038

CLPB isoform 2 (UniProt Q9H078)
inactive: [1] -0.011 | [2] -0.003 | [3] 0.076 | [4] -0.03 | [5] 0.018 | [6] 0.008 | [7] -0.004 | [8] 0.005 | [9] 0.031 | [10] -0.016

CLPTM1 (UniProt O96005)
inactive: [1] -0.016 | [2] -0.008 | [3] 0.042 | [4] -0.035 | [5] 0 | [6] -0.06 | [7] -0.088 | [8] 0.004 | [9] -0.034 | [10] -0.009

CKMT2 (UniProt P17540)
inactive: [1] 0.017 | [2] -0.017 | [3] 0.028 | [4] 0.027 | [5] -0.041 | [6] 0.003 | [7] 0.032 | [8] 0.073 | [9] 0 | [10] 0.062

CHCHD2P9 (UniProt Q5T1J5)
inactive: [1] -0.109 | [2] 0.011 | [3] 0.001 | [4] 0.007 | [5] -0.013 | [6] -0.099 | [7] -0.011 | [8] 0 | [9] -0.032 | [10] 0.152

CKM (UniProt P06732)
inactive: [1] 0.033 | [2] 0 | [3] -0.056 | [4] 0.062 | [5] -0.093 | [6] -0.175 | [7] -0.072 | [8] 0.068 | [9] -0.025 | [10] 0.007

CHCHD1 (UniProt Q96BP2)
inactive: [1] -0.09 | [2] -0.023 | [3] 0.084 | [4] -0.043 | [5] -0.097 | [6] -0.174 | [7] -0.03 | [8] 0 | [9] -0.023 | [10] -0.019

CHKA (UniProt P35790)
inactive: [1] 0.067 | [2] -0.003 | [3] -0.019 | [4] 0.035 | [5] -0.011 | [6] -0.048 | [7] 0.004 | [8] -0.039 | [9] 0.08 | [10] 0.022

CMBL (UniProt Q96DG6)
inactive: [1] -0.029 | [2] 0.054 | [3] 0.155 | [4] 0.006 | [5] -0.025 | [6] -0.047 | [7] -0.001 | [8] -0.027 | [9] -0.023 | [10] 0.149

2 entries drawn at random from the list so far:
CKAP5 (UniProt Q14008)
inactive: [1] 0 | [2] 0.002 | [3] -0.024 | [4] -0.005 | [5] 0.026 | [6] -0.03 | [7] -0.028 | [8] 0.021 | [9] 0.01 | [10] 0.006

CHCHD2P9 (UniProt Q5T1J5)
inactive: [1] -0.109 | [2] 0.011 | [3] 0.001 | [4] 0.007 | [5] -0.013 | [6] -0.099 | [7] -0.011 | [8] 0 | [9] -0.032 | [10] 0.152

Going on with the list.

CHERP (UniProt Q8IWX8)
inactive: [1] -0.019 | [2] 0.011 | [3] -0.046 | [4] -0.016 | [5] 0.013 | [6] -0.05 | [7] -0.017 | [8] 0.015 | [9] 0.017 | [10] 0.044

CLTA isoform 2 (UniProt P09496)
inactive: [1] 0.066 | [2] -0.033 | [3] 0.024 | [4] -0.028 | [5] 0.006 | [6] 0.035 | [7] 0.063 | [8] -0.004 | [9] -0.088 | [10] -0.086

CMC1 (UniProt Q7Z7K0)
inactive: [1] -0.077 | [2] -0.059 | [3] 0.057 | [4] -0.107 | [5] -0.016 | [6] -0.038 | [7] 0.027 | [8] -0.027 | [9] 0.006 | [10] -0.027

CMC2 (UniProt Q9NRP2)
inactive: [1] -0.124 | [2] -0.017 | [3] 0.026 | [4] -0.102 | [5] 0.022 | [6] -0.053 | [7] -0.005 | [8] 0.02 | [9] -0.011 | [10] 0.021

CHURC1 isoform 2 (UniProt Q8WUH1)
inactive: [1] 0.055 | [2] -0.029 | [3] 0.016 | [4] -0.09 | [5] -0.001 | [6] -0.074 | [7] 0.027 | [8] 0.018 | [9] -0.041 | [10] -0.083

CLGN (UniProt O14967)
inactive: [1] 0.009 | [2] -0.066 | [3] 0.004 | [4] -0.136 | [5] 0.03 | [6] -0.058 | [7] -0.078 | [8] 0.027 | [9] -0.017 | [10] -0.051

CIAO3 (UniProt Q9H6Q4)
inactive: [1] -0.017 | [2] 0.07 | [3] -0.013 | [4] 0.048 | [5] 0.023 | [6] -0.037 | [7] -0.006 | [8] 0.012 | [9] -0.028 | [10] 0.014

CHCHD2 (UniProt Q9Y6H1)
inactive: [1] -0.102 | [2] 0.039 | [3] 0.016 | [4] -0.075 | [5] 0.031 | [6] -0.049 | [7] 0.058 | [8] -0.014 | [9] -0.029 | [10] 0.136

CMTM3 (UniProt Q96MX0)
inactive: [1] 0.07 | [2] 0.048 | [3] 0.05 | [4] 0.144 | [5] 0.015 | [6] 0.023 | [7] -0.111 | [8] -0.115 | [9] -0.055 | [10] -0.026

CHP1 (UniProt Q99653)
inactive: [1] 0.016 | [2] -0.041 | [3] 0.04 | [4] -0.023 | [5] 0.015 | [6] -0.031 | [7] -0.021 | [8] 0 | [9] -0.022 | [10] -0.037

CHMP2A (UniProt O43633)
inactive: [1] -0.017 | [2] -0.019 | [3] 0.043 | [4] -0.016 | [5] 0 | [6] -0.024 | [7] -0.012 | [8] -0.044 | [9] -0.017 | [10] 0.037

CHD4 isoform 2 (UniProt Q14839)
inactive: [1] 0.006 | [2] 0.008 | [3] -0.011 | [4] -0.006 | [5] 0.015 | [6] -0.038 | [7] -0.008 | [8] 0.031 | [9] 0.01 | [10] 0.001

CHTF8 (UniProt P0CG13)
inactive: [1] 0.021 | [2] 0.062 | [3] 0.049 | [4] -0.068 | [5] -0.024 | [6] 0.031 | [7] 0.049 | [8] 0.052 | [9] -0.026 | [10] 0.122

CLINT1 isoform 3 (UniProt Q14677)
inactive: [1] 0.024 | [2] -0.009 | [3] 0.054 | [4] -0.014 | [5] 0.009 | [6] 0.126 | [7] -0.082 | [8] -0.029 | [9] -0.026 | [10] 0.031

CKS1B (UniProt P61024)
inactive: [1] -0.03 | [2] 0.04 | [3] 0.065 | [4] -0.066 | [5] 0.011 | [6] 0.069 | [7] 0.106 | [8] -0.051 | [9] 0 | [10] 0.11

CIRBP (UniProt Q14011)
inactive: [1] 0 | [2] 0.027 | [3] -0.044 | [4] 0.02 | [5] 0.019 | [6] 0.028 | [7] -0.024 | [8] -0.007 | [9] -0.014 | [10] 0.018
